From patent US7927581B2, “Peptide-based multimeric targeted contrast agents” (Factor 1A, LLC, priority 2001, dated 2011)
For at least one compound, name, drawing or mass did not settle the structure. Positions of bridges follow the written chain, without caps; N, C: chain ends. Non-standard residues stand in square brackets, D forms with d. Residues, ends and D or L forms follow the SMILES beside them. *: point of attachment. Tyr(3-I) = N[C@@H](Cc1ccc(O)c(I)c1)C(=O)O; Adenin9ylacetyl = Nc1ncnc2c1ncn2CC(=O)*; Gly(N-2-aminoethyl) = NCCNCC(=O)O; Hyp = O=C(O)[C@@H]1C[C@@H](O)CN1

Protein sequences, listed by entry. Tags and fused reporters are not part of them. Residues count along the entry.
UniProt P02671, 124-216: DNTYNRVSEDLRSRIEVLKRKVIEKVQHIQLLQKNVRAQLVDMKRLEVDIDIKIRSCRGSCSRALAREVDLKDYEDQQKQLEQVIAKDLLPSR
UniProt P02671, 36-97: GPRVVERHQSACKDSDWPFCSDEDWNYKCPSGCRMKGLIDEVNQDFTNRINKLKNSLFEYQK
UniProt P02675, 164-491: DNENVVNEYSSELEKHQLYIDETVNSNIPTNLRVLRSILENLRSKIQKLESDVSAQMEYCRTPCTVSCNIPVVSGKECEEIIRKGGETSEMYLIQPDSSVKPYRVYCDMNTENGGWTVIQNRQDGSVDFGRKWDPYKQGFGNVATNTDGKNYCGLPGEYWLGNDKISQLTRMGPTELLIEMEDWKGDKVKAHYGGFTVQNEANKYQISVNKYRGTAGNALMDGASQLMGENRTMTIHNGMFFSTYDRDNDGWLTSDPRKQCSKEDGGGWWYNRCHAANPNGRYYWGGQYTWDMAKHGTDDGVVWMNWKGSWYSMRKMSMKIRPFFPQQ
UniProt P02675, 45-152: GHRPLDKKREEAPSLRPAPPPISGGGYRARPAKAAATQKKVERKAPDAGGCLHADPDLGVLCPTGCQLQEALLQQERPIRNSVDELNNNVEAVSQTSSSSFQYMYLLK
UniProt P02679, 114-432: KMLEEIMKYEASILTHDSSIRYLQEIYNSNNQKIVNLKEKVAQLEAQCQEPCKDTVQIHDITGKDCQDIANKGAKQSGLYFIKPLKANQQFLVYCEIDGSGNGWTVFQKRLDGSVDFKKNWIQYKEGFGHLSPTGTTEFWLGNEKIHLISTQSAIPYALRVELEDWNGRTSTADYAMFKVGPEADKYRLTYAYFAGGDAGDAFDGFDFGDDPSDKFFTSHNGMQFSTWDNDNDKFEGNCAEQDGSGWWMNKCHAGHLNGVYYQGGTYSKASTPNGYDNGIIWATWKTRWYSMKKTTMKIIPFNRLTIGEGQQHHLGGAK
UniProt P02679, 27-88: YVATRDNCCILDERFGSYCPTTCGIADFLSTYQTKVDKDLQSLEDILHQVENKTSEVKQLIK

The compounds below were run against DD(E) fragment of fibrin (Homo sapiens, UniProt P02671+P02675+P02679) (assay: Affinity of cyclized peptides to the DD(E) fragment of fibrin).
Format: binding

`CC[C@H](C)[C@H](NC(=O)[C@H](Cc1c[nH]cn1)NC(=O)[C@@H]1CSSC[C@H](NC(=O)[C@H](Cc2cncn2Cc2ccccc2)NC(=O)[C@@H](N)Cc2ccccc2)C(=O)N2C[C@H](O)C[C@H]2C(=O)N[C@@H](Cc2ccc(O)c(Cl)c2)C(=O)N[C@@H](CC(=O)O)C(=O)N[C@@H](CC(C)C)C(=O)N1)C(=O)N[C@@H](CC(C)C)C(N)=O` [F H(Bzl) C Hyp Y(3-Cl) D L C H I L] (HELM PEPTIDE1{F.[O=C([C@H](Cc1cncn1Cc1ccccc1)N[*:1])[*:2]].C.[Hyp].[O=C([C@H](Cc1ccc(O)c(Cl)c1)N[*:1])[*:2]].D.L.C.H.I.L.[am]}$PEPTIDE1,PEPTIDE1,3:R3-8:R3$$$V2.0; N-terminus and C-terminus assumed) and `CC[C@H](C)[C@H](NC(=O)[C@H](Cc1c[nH]cn1)NC(=O)[C@@H]1CSSC[C@H](NC(=O)[C@H](Cc2c[nH]cn2)NC(=O)[C@@H](N)Cc2ccccc2)C(=O)N2C[C@H](O)C[C@H]2C(=O)N[C@@H](Cc2ccc(O)c(Cl)c2)C(=O)N[C@@H](Cc2ccccc2)C(=O)N[C@@H](CC(C)C)C(=O)N1)C(=O)N[C@@H](CC(C)C)C(N)=O` [F H C Hyp Y(3-Cl) F L C H I L] (HELM PEPTIDE1{F.H.C.[Hyp].[O=C([C@H](Cc1ccc(O)c(Cl)c1)N[*:1])[*:2]].F.L.C.H.I.L.[am]}$PEPTIDE1,PEPTIDE1,3:R3-8:R3$$$V2.0; N-terminus and C-terminus assumed) cannot be ordered by Kd: at most 0.1 µM for the first, at most 0.5 µM for the second.

`CCCC[C@H](NC(=O)[C@H](Cc1c[nH]cn1)NC(=O)[C@@H]1CSSC[C@H](NC(=O)[C@H](Cc2c[nH]cn2)NC(=O)[C@@H](N)Cc2ccccc2)C(=O)N2C[C@H](O)C[C@H]2C(=O)N[C@@H](Cc2ccc(O)c(I)c2)C(=O)N[C@@H](CC(=O)O)C(=O)N[C@@H](CC(C)C)C(=O)N1)C(N)=O` [F H C Hyp Y(3-I) D L C H Nle] (HELM PEPTIDE1{F.H.C.[Hyp].[O=C([C@H](Cc1ccc(O)c(I)c1)N[*:1])[*:2]].D.L.C.H.[Nle].[am]}$PEPTIDE1,PEPTIDE1,3:R3-8:R3$$$V2.0; N-terminus and C-terminus assumed) and `CC[C@H](C)[C@H](NC(=O)[C@H](Cc1c[nH]cn1)NC(=O)[C@@H]1CSSC[C@H](NC(=O)[C@H](Cc2c[nH]cn2)NC(=O)[C@@H](N)Cc2ccccc2)C(=O)N2C[C@H](O)C[C@H]2C(=O)N[C@@H](Cc2ccc(O)c(Cl)c2)C(=O)N[C@@H](CC(=O)O)C(=O)N[C@@H](CC(C)C)C(=O)N1)C(N)=O` [F H C Hyp Y(3-Cl) D L C H I] (HELM PEPTIDE1{F.H.C.[Hyp].[O=C([C@H](Cc1ccc(O)c(Cl)c1)N[*:1])[*:2]].D.L.C.H.I.[am]}$PEPTIDE1,PEPTIDE1,3:R3-8:R3$$$V2.0; N-terminus and C-terminus assumed) cannot be ordered by Kd: at most 0.1 µM for the first, at most 0.1 µM for the second.

`CC[C@H](C)[C@H](NC(=O)[C@H](Cc1cscn1)NC(=O)[C@@H]1CSSC[C@H](NC(=O)[C@H](Cc2c[nH]cn2)NC(=O)[C@@H](N)Cc2ccccc2)C(=O)N2C[C@H](O)C[C@H]2C(=O)N[C@@H](Cc2ccc(O)c(I)c2)C(=O)N[C@@H](CC(=O)O)C(=O)N[C@@H](CC(C)C)C(=O)N1)C(N)=O` [F H C Hyp Y(3-I) D L C Taz I] (HELM PEPTIDE1{F.H.C.[Hyp].[O=C([C@H](Cc1ccc(O)c(I)c1)N[*:1])[*:2]].D.L.C.[O=C([C@H](Cc1cscn1)N[*:1])[*:2]].I.[am]}$PEPTIDE1,PEPTIDE1,3:R3-8:R3$$$V2.0; N-terminus and C-terminus assumed) and `CC[C@H](C)[C@H](NC(=O)[C@H](Cc1ccccn1)NC(=O)[C@@H]1CSSC[C@H](NC(=O)[C@H](Cc2c[nH]cn2)NC(=O)[C@@H](N)Cc2ccccc2)C(=O)N2C[C@H](O)C[C@H]2C(=O)N[C@@H](Cc2ccc(O)c(I)c2)C(=O)N[C@@H](CC(=O)O)C(=O)N[C@@H](CC(C)C)C(=O)N1)C(N)=O` [F H C Hyp Y(3-I) D L C 2Pal I] (HELM PEPTIDE1{F.H.C.[Hyp].[O=C([C@H](Cc1ccc(O)c(I)c1)N[*:1])[*:2]].D.L.C.[O=C([C@H](Cc1ccccn1)N[*:1])[*:2]].I.[am]}$PEPTIDE1,PEPTIDE1,3:R3-8:R3$$$V2.0; N-terminus and C-terminus assumed) cannot be ordered by Kd: at most 0.5 µM for the first, at most 0.5 µM for the second.

`CC[C@H](C)[C@H](NC(=O)[C@H](Cc1c[nH]cn1)NC(=O)[C@@H]1CSSC[C@H](NC(=O)[C@H](Cc2c[nH]cn2)NC(=O)CN(CCN)C(=O)Cn2cnc3c(N)ncnc32)C(=O)N2C[C@H](O)C[C@H]2C(=O)N[C@@H](Cc2ccc(O)c(I)c2)C(=O)N[C@@H](CC(=O)O)C(=O)N[C@@H](CC(C)C)C(=O)N1)C(N)=O` [Ad H C Hyp Y(3-I) D L C H I] (Adenin9ylacetyl-[Gly(N-2-aminoethyl)]HC[Hyp][Tyr(3-I)]DLCHI-NH2; disulfide 3-8; N-terminus and C-terminus assumed) and `CC[C@H](C)[C@H](NC(=O)[C@H](Cc1c[nH]cn1)NC(=O)[C@@H]1CSSC[C@H](NC(=O)[C@H](Cc2c[nH]cn2)NC(=O)[C@@H](N)Cc2ccncc2)C(=O)N2C[C@H](O)C[C@H]2C(=O)N[C@@H](Cc2ccc(O)c(I)c2)C(=O)N[C@@H](CC(=O)O)C(=O)N[C@@H](CC(C)C)C(=O)N1)C(N)=O` [4Pal H C Hyp Y(3-I) D L C H I] (HELM PEPTIDE1{[N[C@@H](Cc1ccncc1)C(=O)[*:2]].H.C.[Hyp].[O=C([C@H](Cc1ccc(O)c(I)c1)N[*:1])[*:2]].D.L.C.H.I.[am]}$PEPTIDE1,PEPTIDE1,3:R3-8:R3$$$V2.0; N-terminus and C-terminus assumed) cannot be ordered by Kd: at most 0.4 µM for the first, at most 0.1 µM for the second.

`CC[C@H](C)[C@H](NC(=O)[C@H](Cc1ccccc1)NC(=O)[C@@H]1CSSC[C@H](NC(=O)[C@H](CCC(=O)O)NC(=O)[C@@H](N)Cc2c[nH]c3ccccc23)C(=O)N2C[C@H](O)C[C@H]2C(=O)N[C@@H](Cc2ccc(O)c(Cl)c2)C(=O)NCC(=O)N[C@@H](CC(C)C)C(=O)N1)C(=O)N[C@@H](CCC(N)=O)C(N)=O` [W E C Hyp Y(3-Cl) G L C F I Q] (HELM PEPTIDE1{W.E.C.[Hyp].[O=C([C@H](Cc1ccc(O)c(Cl)c1)N[*:1])[*:2]].G.L.C.F.I.Q.[am]}$PEPTIDE1,PEPTIDE1,3:R3-8:R3$$$V2.0; N-terminus and C-terminus assumed) and `CC[C@H](C)[C@H](NC(=O)[C@H](Cc1c[nH]cn1)NC(=O)[C@@H]1CSSC[C@H](NC(=O)[C@H](CCC(=O)O)NC(=O)[C@@H](N)Cc2c[nH]cn2)C(=O)N2C[C@H](O)C[C@H]2C(=O)N[C@@H](Cc2ccc(O)c(Cl)c2)C(=O)NCC(=O)N[C@@H](CC(C)C)C(=O)N1)C(=O)N[C@@H](CCC(N)=O)C(N)=O` [H E C Hyp Y(3-Cl) G L C H I Q] (HELM PEPTIDE1{H.E.C.[Hyp].[O=C([C@H](Cc1ccc(O)c(Cl)c1)N[*:1])[*:2]].G.L.C.H.I.Q.[am]}$PEPTIDE1,PEPTIDE1,3:R3-8:R3$$$V2.0; N-terminus and C-terminus assumed) cannot be ordered by Kd: at most 0.2 µM for the first, at most 0.4 µM for the second.

`CC[C@H](C)[C@H](NC(=O)[C@H](CC1CNc2ccccc21)NC(=O)[C@@H]1CSSC[C@H](NC(=O)[C@H](Cc2c[nH]cn2)NC(=O)[C@@H](N)Cc2ccccc2)C(=O)N2C[C@H](O)C[C@H]2C(=O)N[C@@H](Cc2ccc(O)c(I)c2)C(=O)N[C@@H](CC(=O)O)C(=O)N[C@@H](CC(C)C)C(=O)N1)C(N)=O` (stereo partly drawn) [F H C Hyp Y(3-I) D L C Dht I] (HELM PEPTIDE1{F.H.C.[Hyp].[O=C([C@H](Cc1ccc(O)c(I)c1)N[*:1])[*:2]].D.L.C.[O=C([C@H](CC1CNc2ccccc21)N[*:1])[*:2]].I.[am]}$PEPTIDE1,PEPTIDE1,3:R3-8:R3$$$V2.0; N-terminus and C-terminus assumed) and `CC[C@H](C)[C@H](NC(=O)[C@H](Cc1c[nH]cn1)NC(=O)[C@@H]1CSSC[C@H](NC(=O)[C@H](Cc2c[nH]cn2)NC(=O)[C@@H](N)Cc2ccc(I)cc2)C(=O)N2C[C@H](O)C[C@H]2C(=O)N[C@@H](Cc2ccc(O)c(I)c2)C(=O)N[C@@H](CC(=O)O)C(=O)N[C@@H](CC(C)C)C(=O)N1)C(N)=O` [F(4-I) H C Hyp Y(3-I) D L C H I] (HELM PEPTIDE1{[N[C@@H](Cc1ccc(I)cc1)C(=O)[*:2]].H.C.[Hyp].[O=C([C@H](Cc1ccc(O)c(I)c1)N[*:1])[*:2]].D.L.C.H.I.[am]}$PEPTIDE1,PEPTIDE1,3:R3-8:R3$$$V2.0; N-terminus and C-terminus assumed) cannot be ordered by Kd: at most 0.5 µM for the first, at most 0.1 µM for the second.

`CC[C@H](C)[C@H](NC(=O)[C@H](Cc1c[nH]cn1)NC(=O)[C@@H]1CSSC[C@H](NC(=O)[C@H](Cc2c[nH]cn2)NC(=O)[C@@H](N)Cc2ccc(OC)c(OC)c2)C(=O)N2C[C@H](O)C[C@H]2C(=O)N[C@@H](Cc2ccc(O)c(I)c2)C(=O)N[C@@H](CC(=O)O)C(=O)N[C@@H](CC(C)C)C(=O)N1)C(N)=O` [DopaMe2 H C Hyp Y(3-I) D L C H I] (HELM PEPTIDE1{[COc1ccc(C[C@H](N)C(=O)[*:2])cc1OC].H.C.[Hyp].[O=C([C@H](Cc1ccc(O)c(I)c1)N[*:1])[*:2]].D.L.C.H.I.[am]}$PEPTIDE1,PEPTIDE1,3:R3-8:R3$$$V2.0; N-terminus and C-terminus assumed) and `CC(C)C[C@@H]1NC(=O)[C@H](CC(=O)O)NC(=O)[C@H](Cc2ccc(O)c(I)c2)NC(=O)[C@@H]2C[C@@H](O)CN2C(=O)[C@@H](NC(=O)[C@H](Cc2c[nH]cn2)NC(=O)[C@@H](N)Cc2ccccc2)CSSC[C@@H](C(=O)N[C@@H](Cc2c[nH]cn2)C(=O)N[C@@H](Cc2cccc(C(F)(F)F)c2)C(N)=O)NC1=O` [F H C Hyp Y(3-I) D L C H F(3-CF3)] (HELM PEPTIDE1{F.H.C.[Hyp].[O=C([C@H](Cc1ccc(O)c(I)c1)N[*:1])[*:2]].D.L.C.H.[O=C([C@H](Cc1cccc(C(F)(F)F)c1)N[*:1])[*:2]].[am]}$PEPTIDE1,PEPTIDE1,3:R3-8:R3$$$V2.0; N-terminus and C-terminus assumed) cannot be ordered by Kd: at most 0.1 µM for the first, at most 0.1 µM for the second.

Compound `CC(C)C[C@@H]1NC(=O)[C@H](CC(=O)O)NC(=O)[C@H](Cc2ccc(O)c(I)c2)NC(=O)[C@@H]2C[C@@H](O)CN2C(=O)[C@@H](NC(=O)[C@H](Cc2c[nH]cn2)NC(=O)[C@@H](N)Cc2ccccc2)CSSC[C@@H](C(=O)N[C@@H](Cc2c[nH]cn2)C(=O)N[C@@H](Cc2ccc(-c3ccccc3)cc2)C(N)=O)NC1=O` [F H C Hyp Y(3-I) D L C H Bip] (HELM PEPTIDE1{F.H.C.[Hyp].[O=C([C@H](Cc1ccc(O)c(I)c1)N[*:1])[*:2]].D.L.C.H.[O=C([C@H](Cc1ccc(-c2ccccc2)cc1)N[*:1])[*:2]].[am]}$PEPTIDE1,PEPTIDE1,3:R3-8:R3$$$V2.0; N-terminus and C-terminus assumed) has a Kd of at most 0.1 µM.
